The chains behind the UniProt entries cited, without tags or fusion partners. Where a name states a change or a piece, a line headed by the entry shows the natural chain unless it says otherwise.
UniProt F0NHH1: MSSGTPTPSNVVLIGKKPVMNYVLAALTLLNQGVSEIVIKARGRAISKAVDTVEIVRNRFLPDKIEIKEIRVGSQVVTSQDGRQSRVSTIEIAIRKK

According to article PMC7498313:

Molecular target: Sis10b wild-type (Sulfolobus islandicus REY15A) (UniProt F0NHH1)
Test: EMSA
Details: 25°C, affinities similar to 55°C set, Kd only in figure; EMSA: 20 mM HEPES-NaOH pH 7.0, 1 mM DTT, 100 ug/ml BSA, 6% glycerol, 30 min at 25, 37 or 55°C; gel in 0.5x TBE at the same temperature; recombinant protein; label: 5' 32P on top strand

“GGUAAGAGCACCCGACUGCUCUUCC / GGAAGAGCAGUCGGGUGCUCUUACC [25-bp dsRNA]”: binds.

For at least one entry, the source does not settle the construct or the ends of the probe. At least one verdict rests on a figure or table, not on a statement of the authors.
